From US7452905B2, “Phenylalanine derivatives” (Ajinomoto Co., Inc., priority 2000, dated 2008)
The structures given here were assigned with low confidence; some may be wrong.

Protein sequences, listed by entry. Tags and fused reporters are not part of them. Residues count along the entry.
UniProt P05556, 21-798 limits assumed: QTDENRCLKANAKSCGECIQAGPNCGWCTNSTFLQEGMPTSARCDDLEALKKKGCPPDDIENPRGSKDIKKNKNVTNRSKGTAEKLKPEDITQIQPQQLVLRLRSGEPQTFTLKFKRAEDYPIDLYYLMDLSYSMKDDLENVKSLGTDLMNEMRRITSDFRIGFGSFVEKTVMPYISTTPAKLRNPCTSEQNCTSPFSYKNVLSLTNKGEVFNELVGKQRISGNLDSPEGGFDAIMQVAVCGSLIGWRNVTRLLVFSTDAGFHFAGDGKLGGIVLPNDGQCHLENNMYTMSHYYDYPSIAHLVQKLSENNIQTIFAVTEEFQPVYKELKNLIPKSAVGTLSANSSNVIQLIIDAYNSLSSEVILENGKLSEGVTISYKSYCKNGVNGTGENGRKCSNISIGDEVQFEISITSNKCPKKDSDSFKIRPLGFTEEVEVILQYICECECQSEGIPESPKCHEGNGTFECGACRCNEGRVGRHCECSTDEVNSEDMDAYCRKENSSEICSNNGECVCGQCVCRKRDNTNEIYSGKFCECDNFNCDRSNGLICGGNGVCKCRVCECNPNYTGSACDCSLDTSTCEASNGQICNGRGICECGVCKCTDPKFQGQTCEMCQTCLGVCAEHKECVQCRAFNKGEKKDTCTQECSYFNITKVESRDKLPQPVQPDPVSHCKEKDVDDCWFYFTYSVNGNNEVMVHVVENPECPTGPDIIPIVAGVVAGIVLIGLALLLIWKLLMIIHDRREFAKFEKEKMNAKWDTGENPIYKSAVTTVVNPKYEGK
UniProt P13612, 34-1032 limits assumed: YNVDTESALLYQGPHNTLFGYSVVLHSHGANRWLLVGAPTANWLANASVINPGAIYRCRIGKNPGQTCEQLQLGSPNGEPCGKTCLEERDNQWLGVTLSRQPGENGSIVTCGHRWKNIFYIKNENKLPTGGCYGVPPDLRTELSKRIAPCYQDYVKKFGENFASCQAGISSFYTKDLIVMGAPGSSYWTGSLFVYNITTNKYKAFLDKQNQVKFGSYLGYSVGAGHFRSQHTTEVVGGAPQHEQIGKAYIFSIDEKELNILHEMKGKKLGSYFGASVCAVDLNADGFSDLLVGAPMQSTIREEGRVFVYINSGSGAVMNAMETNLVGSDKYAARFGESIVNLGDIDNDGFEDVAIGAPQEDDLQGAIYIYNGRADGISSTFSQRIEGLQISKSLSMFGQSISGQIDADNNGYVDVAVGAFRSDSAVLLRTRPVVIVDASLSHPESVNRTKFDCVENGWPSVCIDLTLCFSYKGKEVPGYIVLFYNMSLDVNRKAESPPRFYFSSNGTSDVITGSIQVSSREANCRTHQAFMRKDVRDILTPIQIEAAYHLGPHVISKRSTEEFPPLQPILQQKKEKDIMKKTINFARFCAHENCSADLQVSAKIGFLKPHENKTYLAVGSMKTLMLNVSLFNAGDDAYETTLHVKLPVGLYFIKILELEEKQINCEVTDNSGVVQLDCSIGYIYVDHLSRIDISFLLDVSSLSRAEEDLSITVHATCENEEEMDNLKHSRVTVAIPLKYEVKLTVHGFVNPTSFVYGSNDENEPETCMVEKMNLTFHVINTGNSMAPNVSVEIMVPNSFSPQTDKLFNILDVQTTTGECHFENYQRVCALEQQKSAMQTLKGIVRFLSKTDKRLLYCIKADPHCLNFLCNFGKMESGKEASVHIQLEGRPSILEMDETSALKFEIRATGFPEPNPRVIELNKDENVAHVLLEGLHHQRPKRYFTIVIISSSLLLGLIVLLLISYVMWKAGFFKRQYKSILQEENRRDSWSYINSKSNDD
UniProt P26010, 20-798 limits assumed: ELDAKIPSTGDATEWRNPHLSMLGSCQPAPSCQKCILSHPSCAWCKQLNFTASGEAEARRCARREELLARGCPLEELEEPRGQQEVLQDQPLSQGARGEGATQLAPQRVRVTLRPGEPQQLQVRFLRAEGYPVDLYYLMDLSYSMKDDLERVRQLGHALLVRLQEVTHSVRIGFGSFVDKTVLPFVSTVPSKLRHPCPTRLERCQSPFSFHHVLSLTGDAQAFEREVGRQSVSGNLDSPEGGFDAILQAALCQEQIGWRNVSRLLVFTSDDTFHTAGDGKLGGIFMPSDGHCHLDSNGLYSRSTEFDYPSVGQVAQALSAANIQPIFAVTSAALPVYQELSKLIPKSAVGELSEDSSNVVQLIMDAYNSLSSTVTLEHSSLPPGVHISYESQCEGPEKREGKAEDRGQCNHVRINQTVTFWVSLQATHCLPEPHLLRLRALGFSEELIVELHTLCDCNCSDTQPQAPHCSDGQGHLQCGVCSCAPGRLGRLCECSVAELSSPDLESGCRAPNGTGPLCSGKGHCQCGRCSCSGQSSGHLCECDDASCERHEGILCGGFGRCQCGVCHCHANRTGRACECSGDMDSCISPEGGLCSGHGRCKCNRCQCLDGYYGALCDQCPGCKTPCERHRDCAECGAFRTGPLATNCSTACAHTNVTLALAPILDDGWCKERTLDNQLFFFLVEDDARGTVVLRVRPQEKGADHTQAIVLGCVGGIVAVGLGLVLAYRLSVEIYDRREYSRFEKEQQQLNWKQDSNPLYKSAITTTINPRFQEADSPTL

Legend:
integrin α4 β1 = integrin α4 β1 (Homo sapiens, UniProt P05556+P13612); experiment: VCAM antagonist activity (VCAM-1/α4β1 binding assay), Jurkat cells binding to VCAM-1; settings: read-out: Antagonistic Activity IC50 α 4 β 1/VCAM; Jurkat cells binding to recombinant human VCAM-1; 50% binding inhibition
Method: VCAM Antagonist Activity (VCAM-1/α4β1 Binding Assay)
The capacity of a test substance antagonistic to the binding of cell strain Jurkat (ATCC TIB-152) of human T cells, known to express integrin α4 β1, to VCAM-1 was determined. 100 μl/well of a solution (500 ng/ml) of recombinant human VCAM-1 (R & D systems) solution diluted with buffer A (0.1 M NaHCO3, pH 9.6) was added to a micro titer plate having 96 wells (Nunc Maxisorp). After the incubation at 4° C. overnight, unbound VCAM-1 was removed by washing once with PBS. […]
Jurkat cells were washed with Dulbecco modified Eagle medium (SIGMA, hereinafter referred to as “DMEM”) twice and then incubated in DMEM containing 10 μg/ml of Calcein-AM (Wako Pure Chemical Industries, Ltd.) at 37° C. in dark place for 30 minutes to label with fluorescence. […]
(§1) 50 μl of a test substance of various concentrations obtained by the dilution with the binding buffer was added to the plate. […] The fluorescence quantity of the bound cells remaining in the wells was determined with a fluorescent plate reader (Wallac 1420 ARVO multi-label counter) (filter excitation wave length: 485 nm, emission wave length: 535 nm). […] The binding rate of each test material in various concentrations was determined while the fluorescent strength of the test material-free well was determined to be 100%. […]

integrin α4β7 = integrin α4β7 (Homo sapiens, UniProt P13612+P26010); experiment: VCAM antagonistic activity (VCAM-1/α4β7 binding assay), RPMI-8866 cells binding to VCAM-1; settings: read-out: Antagonistic Activity IC50 α 4 β 7/VCAM; RPMI-8866 cells binding to recombinant human VCAM-1, binding buffer with 4 mM MnCl2; 50% binding inhibition
Method: VCAM Antagonistic Activity (VCAM-1/α4β7 Binding Assay)
The capacity of a test substance antagonistic to the binding of lymphoma cell strain RPMI-8866 of human B cells, known to express integrin α4β7, to VCAM-1 was determined. 100 μl/well of a solution (500 ng/ml) of recombinant human VCAM-1 (R & D systems) solution diluted with buffer A (0.1 M NaHCO3, pH 9.6) was added to a micro titer plate having 96 wells (Nunc Maxisorp). After the incubation at 4° C. overnight, unbound VCAM-1 was removed by washing once with PBS. […]
RPMI-8866 cells were incubated in Dulbecco modified Eagle medium containing 10 μg/ml of Calcein-AM (Wako Pure Chemical Industries, Ltd.) (SIGMA, hereinafter referred to as “DMEM”) at 37° C. for 30 minutes to label with fluorescence. […]
as §1

`CN(C)c1ccc2c(c1)C(=O)N(c1ccc(C[C@H](NC(=O)c3c(Cl)cccc3Cl)C(=O)O)cc1)C2=O` was tested, and the IC50 (integrin α4 β1) was 580 nM and the IC50 (integrin α4β7) was 44 nM.
